Measurements: PubChem BioAssay AID1671190 (National Center for Advancing Translational Sciences (NCATS), 2021)
Among all 580,000 compounds or so, about 6,100 (1.1%) were called active. The inconclusive results got no clear call from the source; some entries with a clear call stand among them for comparison. The call rests on the fitted dose curve; in most records, active means well fitted inhibition curve with a large enough effect; inconclusive means small, poorly fitted or top-dose-only effect, or another doubt; inactive means no such curve, though single readings can be large or run the other way. Potencies of inconclusive entries are doubtful fits and often do not repeat.
On the % scale 0 is the no-effect control and ±100 the full control effect; potency means the concentration at half of the fitted maximal effect.

The chains behind the UniProt entries cited, without tags or fusion partners. Where a name states a change or a piece, a line headed by the entry shows the natural chain unless it says otherwise.
UniProt P18054: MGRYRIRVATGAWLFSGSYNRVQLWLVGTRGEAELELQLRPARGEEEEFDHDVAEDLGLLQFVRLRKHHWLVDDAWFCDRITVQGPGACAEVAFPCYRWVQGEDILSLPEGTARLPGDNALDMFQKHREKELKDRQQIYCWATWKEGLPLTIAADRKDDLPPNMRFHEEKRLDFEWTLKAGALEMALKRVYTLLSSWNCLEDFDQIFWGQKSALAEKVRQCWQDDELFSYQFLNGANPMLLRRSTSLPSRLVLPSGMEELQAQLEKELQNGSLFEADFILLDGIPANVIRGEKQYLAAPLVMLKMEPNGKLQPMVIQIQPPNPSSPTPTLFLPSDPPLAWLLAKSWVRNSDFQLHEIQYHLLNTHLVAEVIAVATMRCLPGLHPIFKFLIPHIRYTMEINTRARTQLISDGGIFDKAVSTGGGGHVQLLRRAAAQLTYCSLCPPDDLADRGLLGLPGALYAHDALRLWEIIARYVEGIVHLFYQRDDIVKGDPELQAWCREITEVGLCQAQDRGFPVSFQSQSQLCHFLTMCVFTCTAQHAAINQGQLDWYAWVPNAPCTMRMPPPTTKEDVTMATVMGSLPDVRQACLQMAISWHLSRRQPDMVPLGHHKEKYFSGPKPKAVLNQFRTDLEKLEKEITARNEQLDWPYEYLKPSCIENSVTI

Each molecule was assayed against Polyunsaturated fatty acid lipoxygenase ALOX12 (Homo sapiens) (UniProt P18054) (assay: Primary qHTS assay for inhibitors of human arachidonate 12S-lipoxygenase (ALOX12): Round 2). Details: purified 12hLO, xylenol orange hydroperoxide absorbance; activity change, negative = inhibition: at 108 µM (top of the series) unless noted.
How it was run: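 Hydroperoxide product was detected by ferrous iron/xylenol orange as the 573 to 405 nm absorbance ratio. Arachidonic acid at 40 uM (final) was turned over for 30 min at room temperature by 150 nM human 12hLO, pH 7.0 Hepes buffer, after 15 min compound preincubation.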
In the case of `COc1cc(/C=N/NC(=O)c2c(-c3c(Cl)cccc3Cl)noc2C)ccc1OCC(N)=O`, the Potency is reported as “inactive”. `O=C1Cc2c(-c3ccc(Oc4ccccc4)cc3)n[nH]c2CN1CCc1ccncc1` was tested, and the Potency was “inactive”. In the case of `COc1ccc(OC)c(S(=O)(=O)Nc2ccc(-c3ccc(N4CCOCC4)nn3)cc2)c1`, the Potency is reported as inconclusive: 79.4 µM [inhibitor, partial curve, poor fit]. For `CCOC(=O)c1nnn(-c2nonc2N)c1CSc1ccccn1`, the Potency was inconclusive: 100 µM [inhibitor, partial curve, poor fit]. For `COc1ccc(CN2C(=O)C(n3ccc4ccccc43)c3cc(F)ccc32)cc1` (centres undefined), the Potency was inconclusive: 79.4 µM [inhibitor, partial curve, poor fit]. In the case of `CC(C)(C)[C@H](N)C(=O)N[C@H]1CCC2C3CC=C4C[C@@H](O)CC[C@]4(C)C3CC[C@@]21C` (some centres undefined), the Potency is reported as “inactive”. In the case of `COc1ccc(/C(O)=C2\C(=O)C(=O)NC2c2ccc(C(C)(C)C)cc2)cc1F` (centres undefined), the Potency is reported as inconclusive: 11.2 µM [inhibitor, full curve]. For `CN(C)c1ncc2c(n1)C(C)(C(=O)NCCOc1ccccc1)CCC2` (centres undefined), the Potency was “inactive”. With `COc1nnc(-c2ccc(N3CCCCC3)c(N)c2)c2ccccc12` the Potency was inconclusive: 79.4 µM [inhibitor, single point]. For `Cc1ccc(C(=O)NC(C(=O)Nc2ccccc2C)C(C)C)cc1` (centres undefined), the Potency was inconclusive: 39.8 µM [inhibitor, partial curve, poor fit]. In the case of `CN(Cc1ccccc1)C(=O)c1ccc2c(c1)N(Cc1ccccc1Cl)C(=O)c1ccccc1S2`, the Potency is reported as “inactive”. In the case of `COc1ccc(-c2nc3ccccc3n2OC(C)C(=O)O)cc1` (centres undefined), the Potency is reported as inconclusive: 4.47 µM [inhibitor, full curve, poor fit]. In the case of `O=C(Cc1ccccc1)Nc1cccc2ncccc12`, the Potency is reported as inconclusive: 50.1 µM [inhibitor, partial curve, poor fit]. `CCCOc1ccc(/C(O)=C2/C(=O)C(=O)N(CCCOC)C2c2ccncc2)cc1` (centres undefined) was tested, and the Potency was inconclusive: 4.47 µM [inhibitor, partial curve, poor fit]. In the case of `O=C(/C=C/c1ccc2ccccc2n1)NCc1ccccc1`, the Potency is reported as inconclusive: 44.7 µM [inhibitor, partial curve, poor fit]. `COC(=O)COc1ccc(S(=O)(=O)N2CCN(c3ccccc3)CC2)cc1` was tested, and the Potency was inconclusive: 50.1 µM [inhibitor, partial curve, poor fit]. `CCOC(=O)c1c(N)sc(C(O)(C(F)(F)F)C(F)(F)F)c1-c1ccc(Cl)cc1` was tested, and the Potency was inconclusive: 39.8 µM [inhibitor, partial curve, poor fit]. For `CC(CSc1n[nH]c(=S)s1)c1ccccc1` (centres undefined), the Potency was inconclusive: 44.7 µM [inhibitor, partial curve, poor fit]. `Cc1ccc2c(=O)cc(C(=O)N3CCC(Cc4ccccc4)CC3)oc2c1C` was tested, and the Potency was inconclusive: 79.4 µM [inhibitor, partial curve, poor fit]. `COc1ccc(OC)c(Nc2nc(NCCO)c3ccccc3n2)c1` was tested, and the Potency was inconclusive: 31.6 µM [inhibitor, partial curve, poor fit]. With `O=C1N(CCc2ccccc2)CCOC12CCN(Cc1ccc3cn[nH]c3c1)CC2` the Potency was “inactive”. In the case of `Cc1ccc(S(=O)(=O)NCCCNc2ccc([N+](=O)[O-])cc2)cc1`, the Potency is reported as inconclusive: 35.5 µM [inhibitor, partial curve, poor fit]. `CSc1ccc(S(=O)(=O)NCc2ccc(Cl)cc2Cl)cc1` was tested, and the Potency was inconclusive: 56.2 µM [inhibitor, partial curve, poor fit]. `COc1ccccc1CNC(=O)CSc1nc(N)c(C#N)c(-c2cccs2)c1C#N` was tested, and the Potency was inconclusive: 63.1 µM [inhibitor, partial curve, poor fit]. `COc1ccccc1CC(=O)Nc1ccc2c3c(cccc13)CC2` was tested, and the Potency was inconclusive: 112 µM [inhibitor, partial curve, poor fit]. In the case of `COCCn1cnnc1CN(C)c1cc(C2CC(O)C2)ncn1` (centres undefined), the Potency is reported as “inactive”. In the case of `COC(=O)[C@@]12C[C@@H](CC(=O)N3CCCCC3)C(=O)N(CCc3ccc(OC)c(OC)c3)C1=CCC(C)(C)C2`, the Potency is reported as “inactive”. With `COc1ccc(CNC(=O)C(=O)Nc2ccc(C)cc2C)cc1` the Potency was “inactive”. For `Cc1cc(C)n2c(NC3CCCC3)c(-c3ccc(F)cc3)nc2n1`, the Potency was inconclusive: 5.01 µM [inhibitor, partial curve, poor fit]. With `COc1ccc(-c2ccc(-c3nc4c(c(=O)[nH]c(=O)n4Cc4ccccc4)n3C)o2)c([N+](=O)[O-])c1` the Potency was “inactive”. For `Cn1ncc2c(C(=O)NCc3ccc(F)cc3)cc(C(C)(C)C)nc21`, the Potency was inconclusive: 12.6 µM [inhibitor, full curve, poor fit]. In the case of `COC(=O)C1=CN(Cc2ccc(OC)cc2)C=C(C(=O)OC)C1c1ccccc1OC(C)C`, the Potency is reported as inconclusive: 100 µM [inhibitor, single point]. `C=CCOc1ccc(/C=C2\SC(=S)N(NS(=O)(=O)c3ccc(C)cc3)C2=O)cc1` was tested, and the Potency was inconclusive: 39.8 µM [inhibitor, partial curve, poor fit]. For `COc1ccc2c(c1)c(=O)oc1cc(OCC(=O)NC3CCCCC3)ccc12`, the Potency was inconclusive: 20 µM [inhibitor, full curve, poor fit]. `CCOC(=O)C1(Cc2cccc(OC)c2)CCN(C(C)CC(C)(C)O)CC1` (centres undefined) was tested, and the Potency was inconclusive: 39.8 µM [inhibitor, single point]. `O=C(NC1CCN(c2cc(C(F)(F)F)ncn2)CC1)c1ccccc1` was tested, and the Potency was active: 44.7 µM. `Cc1cc(C)c(NC(=O)Cn2nnc3sc4c(c3c2=O)CCC(C(C)(C)C)C4)c(C)c1` (centres undefined) was tested, and the Potency was “inactive”. In the case of `CC(C)C(=O)c1ccc(O)c(O)c1`, the Potency is reported as inconclusive: 28.2 µM [inhibitor, partial curve, poor fit]. For `CC1(C(=O)Nc2ccc3[nH]ncc3c2)CCN1C(=O)Cc1ccc(-c2ccccc2)cc1` (centres undefined), the Potency was inconclusive: 31.6 µM [inhibitor, single point]. With `CC(=O)NC(CC(=O)N1CCN(C(C)=O)CC1)c1ccccc1` (centres undefined) the Potency was inconclusive: 50.1 µM [inhibitor, partial curve, poor fit]. For `CCCCN1C(C(=O)c2ccccc2)=C(OC(=O)CC)c2ccccc2S1(=O)=O`, the Potency was inconclusive: 35.5 µM [inhibitor, partial curve, poor fit]. `O=C(c1cc(-c2ccccc2)n[nH]1)N1CCC2(CC1)N=C(c1ccccc1)NO2` was tested, and the Potency was inconclusive: 70.8 µM [inhibitor, single point]. `CCn1nc(C(=O)Nc2ccc(S(=O)(=O)Nc3nccs3)cc2)c2ccccc2c1=O` was tested, and the Potency was inconclusive: 0.316 µM [inhibitor, single point]. In the case of `Cc1[nH]c2ccccc2c1/C=N/NC(=O)c1cccc([N+](=O)[O-])c1`, the Potency is reported as “inactive”. In the case of `O=C(N/C(=C/c1ccco1)C(=O)N1CCOCC1)c1cccs1`, the Potency is reported as inconclusive: 44.7 µM [inhibitor, partial curve, poor fit]. With `Cc1nc2cc3ccccc3cc2c(=O)[nH]1` the Potency was inconclusive: 56.2 µM [inhibitor, partial curve, poor fit]. With `CC1CN(C(=O)[C@@H]2CCCN2S(=O)(=O)c2ccc(Cl)cc2)CC(C)O1` (some centres undefined) the activity change, negative = inhibition was inconclusive: -34.4% [inhibitor]. With `CNc1nnc(-c2ccc(C)cc2)c2ccccc12` the Potency was “inactive”. With `CC(C)(/C=N/O)N(O)C=C1C=CC(=O)C=C1` the Potency was inconclusive: 35.5 µM [inhibitor, partial curve, poor fit]. With `O=C(Nc1ccc(N2CCN(C(=O)c3ccc(Cl)cc3)CC2)cc1)c1ccc([N+](=O)[O-])o1` the Potency was “inactive”. For `O=C(CC1CC2CCC1C2)Nc1ccc(Br)cc1Cl` (centres undefined), the Potency was inconclusive: 50.1 µM [inhibitor, partial curve, poor fit]. For `COc1cc(/C=C/CO)cc(OC)c1OC/C=C(\C)CCC=C(C)C`, the Potency was inconclusive: 50.1 µM [inhibitor, partial curve, poor fit]. With `COc1ccc(C(=O)N2CCC3(CC2)NC(=O)N(c2cccc(Cl)c2)N3)cc1` the Potency was active: 1.78 µM. With `CN1CCC(NC(=O)c2cc(-c3cccc(Br)c3)nc3ccccc23)CC1` the Potency was inconclusive: 44.7 µM [inhibitor, partial curve, poor fit]. With `CC1=C(C(=O)NCc2ccccc2)C(c2ccccc2)NC(=S)N1` (centres undefined) the Potency was “inactive”. For `CC(=O)C1=C(C)N(CC(C)C)C(=S)NC1c1cccc(Cl)c1` (centres undefined), the Potency was inconclusive: 44.7 µM [inhibitor, partial curve, poor fit]. In the case of `O=C(NCc1ccccc1)C1=C[C@@H](c2ccc(C(F)(F)F)cc2)C[C@@H](OCc2ccc(CO)cc2)O1`, the Potency is reported as inconclusive: 17.8 µM [inhibitor, full curve, poor fit]. In the case of `Cc1ccc(S(=O)(=O)N(CC(=O)NC(C(C)C)C(C)C)c2ccccc2C)cc1`, the Potency is reported as “inactive”. In the case of `CCc1nnc(NC(=O)CSc2nnc(-c3ccccc3O)n2CC)s1`, the Potency is reported as “inactive”. With `O=C(CN1CCN(S(=O)(=O)c2ccccc2F)CC1)Nc1ccccc1C(=O)c1ccccc1` the Potency was “inactive”. For `CCc1ccc2nc(-c3ccc(C)cc3C)cc(C(=O)O)c2c1`, the Potency was “inactive”. With `O=C(CCCN1C(=O)/C(=C\c2ccco2)SC1=S)Nc1ccc2ccccc2c1` the Potency was inconclusive: 15.8 µM [inhibitor, partial curve, poor fit]. For `CCCN1CCN(c2ncnc3sc(C(=O)Nc4ccc(OC(F)(F)F)cc4)c(C)c23)CC1`, the Potency was inconclusive: 44.7 µM [inhibitor, partial curve, poor fit]. With `COc1cccc2c3c(c(=O)[nH]c12)CCC(C)(C)O3` the Potency was inconclusive: 44.7 µM [inhibitor, single point].
